Data on 1 molecule can be found in patent US20250288612A1 (TOPMUNNITY THERAPEUTICS TAIWAN, published 2025).

Protein sequences, listed by entry. Tags and fused reporters are not part of them. Lines headed by an entry give the natural chain unless they say otherwise; changes in a name come on top.
UniProt Q9NZQ7: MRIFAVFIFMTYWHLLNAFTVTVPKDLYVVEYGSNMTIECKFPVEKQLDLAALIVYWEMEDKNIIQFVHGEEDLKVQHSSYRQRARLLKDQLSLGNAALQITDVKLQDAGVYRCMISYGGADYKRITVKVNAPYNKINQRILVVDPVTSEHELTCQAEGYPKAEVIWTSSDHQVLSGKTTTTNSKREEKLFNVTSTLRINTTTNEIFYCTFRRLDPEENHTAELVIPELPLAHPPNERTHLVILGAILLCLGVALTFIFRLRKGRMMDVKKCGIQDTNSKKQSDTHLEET

No constants are given. Whether binding was seen depends on the method and setting. Some binding calls cover weakened binding; strength is not graded here.

For test [1], the target named is T1, recombinant PD-L1 (UniProt Q9NZQ7 19-238, limits assumed).
T1 construct: also called Programmed Death-Ligand 1
Nature of the test: SPR, Biacore T200, multi-cycle kinetics, hTT-01 captured on Sensor Chip Protein A, PD-L1 injected as analyte, 25 C.

The target in test [2] is T1, recombinant PD-L1. Nature of the test: SPR, Biacore T200. (In SPR one partner is held on a chip, and binding of the other changes the refractive index at the surface.)

B1: humanized anti-PD-L1 monoclonal antibody hTT-01 (antibody, V domains shown)
VH: EVQLVESGGGLVKPGGSLRLSCAASGFSLSNYVMSWVRQAPGKGLEWVATISSGGRYIYYTDSVKGRFTISRDNAKNSLYLQMNSLRAEDTAVYYCARDGSTLYYFDYWGQGTTVTVSS
VL: QTVLTQSPATLSLSPGERATLSCSASSSVDYMYWYQQKPGQAPRLLIYDTSNLATGIPARFSGSGSGTDFTLTISSLEPEDFATYYCQQWSSSPPITFGQGTKVEIK
notes: It was captured through its Fc on a Protein A chip, and an anti-human IgG secondary antibody was used in FACS; also called TT-01 humanized monoclonal antibody
With B1, the binding entry with recombinant PD-L1 [1] and with recombinant PD-L1 [2] was “binds” throughout.
